PubChem BioAssay AID504793, Drosophila RNAi Screening Center, 2011

- Screen: 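Knock-downs allowing continued mitosis even though DNA is damaged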 (primary screen)
- System: Drosophila S2R+ cells
- Reagents: long dsRNA against Drosophila genes, about 0.25 µg dsRNA per well
- Duration: 4 days of dsRNA, then 4 hours of drug before read-out
- Treatment: doxorubicin 0.5 µM for 4 hours to cause double-strand breaks, in cells also given a low, harmless dose of dsRNA against nbs to sensitise the assay
- Measured: 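Mitotic index as the number of phospho-histone H3-positive cells in each well following doxorubicin, given as raw counts without normalisation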
- Direction: mitotic cells: higher = more cells in mitosis, weaker G2 arrest
- Rule for the call: 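Genes are called active only when high mitotic counts were reproduced with independent dsRNAs and mitosis was checked for delay without damage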
- Meaning of the calls: active = confirmed in follow-up tests; inactive = not confirmed
The deposit covers about 23,000 reagents; this is a random part of those with a known target gene and a result. Over the whole deposit, 62 (0.27%) got an active call. 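Calls come from follow-up tests whose scores are not deposited, so confirmed genes may have low counts here; counts are not normalised per plate.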 Raw values are not corrected between plates. Names joined by + are all predicted targets of the reagent.

The opening 6 records as a preview:
| Target gene | dsRNA | mitotic cells, replicate 1 | mitotic cells, replicate 2 | outcome |
| --- | --- | --- | --- | --- |
| mthl9 (methuselah-like 9) | DRSC08506 | 4 | – | inactive |
| CG8586 | DRSC07218 | 7 | – | inactive |
| dgrn (degringolade) | DRSC12154 | 10 | – | inactive |
| CG11122 | DRSC19382 | 4 | – | inactive |
| CG11122 | DRSC27302 | 6 | – | inactive |
| CG42505 + CG42504 + CG31358 | DRSC15235 | 6 | – | inactive |

Main list, repeating the preview:
| Target gene | dsRNA | mitotic cells, replicate 1 | mitotic cells, replicate 2 | outcome |
| --- | --- | --- | --- | --- |
| mthl9 (methuselah-like 9) | DRSC08506 | 4 | – | inactive |
| CG8586 | DRSC07218 | 7 | – | inactive |
| dgrn (degringolade) | DRSC12154 | 10 | – | inactive |
| CG11122 | DRSC19382 | 4 | – | inactive |
| CG11122 | DRSC27302 | 6 | – | inactive |
| CG42505 + CG42504 + CG31358 | DRSC15235 | 6 | – | inactive |
| CG42505 + CG42504 + CG31358 | DRSC15308 | 5 | – | inactive |
| CG42505 + CG42504 + CG31358 | DRSC15309 | 5 | – | inactive |
| CG9171 | DRSC03152 | 4 | – | inactive |
| CG9171 | DRSC21813 | 11 | – | inactive |
| CG9171 | DRSC24830 | 9 | – | inactive |
| sced (scrambled) | DRSC04990 | 2 | – | inactive |
| Pp2C1 (Protein phosphatase 2C) | DRSC23287 | 9 | – | inactive |
| Pp2C1 (Protein phosphatase 2C) | DRSC28091 | 7 | – | inactive |
| CG4360 | DRSC15566 | 5 | – | inactive |
| CG4360 | DRSC30049 | 6 | – | inactive |
| Acp63F (Accessory gland protein 63F) | DRSC08137 | 7 | – | inactive |
| CG15035 | DRSC17967 | 8 | – | inactive |
| Vha68-3 (Vacuolar H[+] ATPase 68kD subunit 3) | DRSC02809 | 11 | – | inactive |
| Vha68-3 (Vacuolar H[+] ATPase 68kD subunit 3) | DRSC25742 | 3 | – | inactive |
| CG6244 | DRSC10609 | 6 | – | inactive |
| CG9449 | DRSC11073 | 3 | – | inactive |
| CG9449 | DRSC25691 | 4 | – | inactive |
| Kr-h1 (Kruppel homolog 1) | DRSC00908 | 3 | – | inactive |
| Kr-h1 (Kruppel homolog 1) | DRSC03355 | 11 | – | inactive |
| Kr-h1 (Kruppel homolog 1) | DRSC23629 | 10 | – | inactive |
| Snx17 (Sorting nexin 17) | DRSC02884 | 9 | – | inactive |
| Snx17 (Sorting nexin 17) | DRSC28893 | 5 | – | inactive |
| CG6163 | DRSC10595 | 6 | – | inactive |
| CG6163 | DRSC26527 | 8 | – | inactive |
| CG16852 | DRSC01876 | 3 | – | inactive |
| trx (trithorax) | DRSC17089 | 9 | – | inactive |
| trx (trithorax) | DRSC38481 | 12 | – | inactive |
| CG14443 | DRSC17936 | 8 | – | inactive |
| Or10a (Odorant receptor 10a) | DRSC20264 | 14 | – | inactive |
| Or10a (Odorant receptor 10a) | DRSC27634 | 5 | – | inactive |
| Helz (Helicase with zinc finger) | DRSC11072 | 9 | – | inactive |
| Spt-I (Serine palmitoyltransferase subunit I) | DRSC06860 | 3 | – | inactive |
| Spt-I (Serine palmitoyltransferase subunit I) | DRSC26069 | 9 | – | inactive |
| Syt12 (Synaptotagmin 12) | DRSC19359 | 6 | – | inactive |
| CG30049 | DRSC21345 | 10 | – | inactive |
| CG30049 | DRSC26709 | 6 | – | inactive |
| mh (maternal haploid) | DRSC20168 | 7 | – | inactive |
| lms (lateral muscles scarcer) | DRSC06387 | 5 | – | inactive |
| lms (lateral muscles scarcer) | DRSC27541 | 2 | – | inactive |
| L2HGDH (L-2-hydroxyglutarate dehydrogenase) | DRSC02082 | 9 | – | inactive |
| L2HGDH (L-2-hydroxyglutarate dehydrogenase) | DRSC25864 | 4 | – | inactive |
| unc-45 (uncoordinated 45) | DRSC15449 | 4 | – | inactive |
| CG31097 | DRSC14666 | 10 | – | inactive |
| CG13063 | DRSC09946 | – | – | inactive |
| CG13063 | DRSC25466 | 7 | – | inactive |
| E(spl)mbeta-HLH (Enhancer of split mbeta, helix-loop-helix) | DRSC16697 | 6 | – | inactive |
| CG7432 | DRSC16243 | 16 | – | inactive |
| BOD1 (Biorientation Defective 1) | DRSC15824 | 12 | – | inactive |
| BOD1 (Biorientation Defective 1) | DRSC24273 | 6 | – | inactive |
| COX6CL (Cytochrome c oxidase subunit 6C-like) | DRSC00895 | 5 | – | inactive |
| CG4080 | DRSC10398 | 7 | – | inactive |
| CG30082 | DRSC22945 | 7 | – | inactive |
| TwdlX (TweedleX) | DRSC19151 | 32 | – | inactive |
| TwdlX (TweedleX) | DRSC29528 | 6 | – | inactive |
| ATP8A (ATPase 8A) | DRSC05421 | 6 | – | inactive |
| ATP8A (ATPase 8A) | DRSC06643 | 6 | – | inactive |
| ATP8A (ATPase 8A) | DRSC06644 | 6 | – | inactive |
| CG15317 | DRSC18005 | 11 | – | inactive |
| CG15317 | DRSC25924 | 6 | – | inactive |
| Agpat2 (1-Acylglycerol-3-phosphate O-acyltransferase 2) | DRSC03532 | 7 | – | inactive |
| Agpat2 (1-Acylglycerol-3-phosphate O-acyltransferase 2) | DRSC27901 | 6 | – | inactive |
| B52 | DRSC14121 | 13 | – | inactive |
| B52 | DRSC25482 | 3 | – | inactive |
| vig2 | DRSC14402 | 4 | – | inactive |
| vig2 | DRSC30012 | 6 | – | inactive |
| CG8916 | DRSC20120 | 4 | – | inactive |
| CG11600 | DRSC14332 | 4 | – | inactive |
| CG11600 | DRSC24238 | 13 | – | inactive |
| CG32695 | DRSC17975 | 7 | – | inactive |
| CG8043 | DRSC16368 | 3 | – | inactive |
| Prp40 (pre-mRNA processing factor 40) | DRSC00612 | 5 | – | inactive |
| ReepA (Receptor expression enhancing protein A) | DRSC04572 | 6 | – | inactive |
| ReepA (Receptor expression enhancing protein A) | DRSC22475 | 18 | – | inactive |
| ReepA (Receptor expression enhancing protein A) | DRSC27058 | 2 | – | inactive |
| ReepA (Receptor expression enhancing protein A) | DRSC29893 | 6 | – | inactive |
| CG14491 | DRSC06462 | 9 | – | inactive |
| CG14491 | DRSC29448 | 4 | – | inactive |
| CG42570 | DRSC09391 | 2 | – | inactive |
| DIP-gamma (Dpr-interacting protein gamma) | DRSC14873 | 5 | – | inactive |
| E(spl)mgamma-HLH (Enhancer of split mgamma, helix-loop-helix) | DRSC16699 | 4 | – | inactive |
| E(spl)mgamma-HLH (Enhancer of split mgamma, helix-loop-helix) | DRSC25532 | 2 | – | inactive |
| Rsph3 (Radial spoke head protein 3) | DRSC09696 | 4 | – | inactive |
| Rsph3 (Radial spoke head protein 3) | DRSC10211 | 8 | – | inactive |
| Rsph3 (Radial spoke head protein 3) | DRSC26917 | 5 | – | inactive |
| CG5662 | DRSC19957 | 12 | – | inactive |
| mv (mauve) | DRSC08208 | 2 | – | inactive |
| mv (mauve) | DRSC08570 | 8 | – | inactive |
| mv (mauve) | DRSC28733 | 5 | – | inactive |
| vis (vismay) | DRSC26134 | 8 | – | inactive |
| ldd (lipid droplet defective) | DRSC20558 | 6 | – | inactive |
| ldd (lipid droplet defective) | DRSC22696 | 6 | – | inactive |
| Tsp33B (Tetraspanin 33B) | DRSC02418 | 3 | – | inactive |
| Tsp33B (Tetraspanin 33B) | DRSC28982 | 9 | – | inactive |
| Nup58 (Nucleoporin 58kD) | DRSC16235 | 17 | – | inactive |
| Nup58 (Nucleoporin 58kD) | DRSC27863 | 5 | – | inactive |
| Rbp4 (RNA-binding protein 4) | DRSC16818 | 5 | – | inactive |
| Rbp4 (RNA-binding protein 4) | DRSC27818 | 3 | – | inactive |
| caps (capricious) | DRSC11333 | 3 | – | inactive |
| caps (capricious) | DRSC22224 | 13 | – | inactive |
| fne (found in neurons) | DRSC20332 | 11 | – | inactive |
| fne (found in neurons) | DRSC25027 | 3 | – | inactive |
| fne (found in neurons) | DRSC25129 | 7 | – | inactive |
| Fas2 (Fasciclin 2) | DRSC17308 | 8 | – | inactive |
| Fas2 (Fasciclin 2) | DRSC17309 | 10 | – | inactive |
| Fas2 (Fasciclin 2) | DRSC18664 | 12 | – | inactive |
| milt (milton) | DRSC00965 | 6 | – | inactive |
| milt (milton) | DRSC00966 | 5 | – | inactive |
| milt (milton) | DRSC02281 | 5 | – | inactive |
| milt (milton) | DRSC28963 | 5 | – | inactive |
| CG42843 (retired record) | DRSC02231 | 7 | – | inactive |
| CG42843 (retired record) | DRSC02233 | 2 | – | inactive |
| CG42843 (retired record) | DRSC28467 | 7 | – | inactive |
| pns (pinstripe) | DRSC08598 | 8 | – | inactive |
| CG11902 | DRSC14434 | 19 | – | inactive |
| CG11902 | DRSC28805 | 7 | – | inactive |
| Alas (Aminolevulinate synthase) | DRSC04044 | 4 | – | inactive |
| Sr-CIII (Scavenger receptor class C, type III) | DRSC22262 | 9 | – | inactive |
| Spn43Ab (Serpin 43Ab) | DRSC06781 | 3 | – | inactive |
| Spn43Ab (Serpin 43Ab) | DRSC28317 | 5 | – | inactive |
| HDAC1 (Histone deacetylase 1) | DRSC08696 | 6 | – | inactive |
| mAcon2 (Mitochondrial aconitase 2) | DRSC15629 | 4 | – | inactive |
| mAcon2 (Mitochondrial aconitase 2) | DRSC24696 | 8 | – | inactive |
| SoYb | DRSC02901 | 1 | – | inactive |
| MRP (Multidrug-Resistance like Protein 1) | DRSC02942 | 6 | – | inactive |
| Socs36E (Suppressor of cytokine signaling at 36E) | DRSC02455 | 6 | 12 | inactive |
| Socs36E (Suppressor of cytokine signaling at 36E) | DRSC27917 | 8 | – | inactive |
| Mco4 (Multicopper oxidase 4) | DRSC20061 | 11 | – | inactive |
| Mco4 (Multicopper oxidase 4) | DRSC27932 | 8 | – | inactive |
| CG5180 | DRSC15731 | 5 | – | inactive |
| CG10265 | DRSC05986 | 7 | – | inactive |
| CG10265 | DRSC21680 | 7 | – | inactive |
| Sdb (SAXO downstream of blistered) | DRSC06272 | 8 | – | inactive |
| Sdb (SAXO downstream of blistered) | DRSC06273 | 7 | – | inactive |
| Sdb (SAXO downstream of blistered) | DRSC07155 | 5 | – | inactive |
